Test results reported in PubChem BioAssay (NCATS).
Inconclusive results, whose numbers are uncertain, are shown with a selection of clear calls. For some of these results: Potencies of inconclusive entries are doubtful fits and often do not repeat. Activity calls are given as the source filed them. The call rests on the fitted dose curve; in most records, active means well fitted curve in the direction sought with a large enough effect; inconclusive means small, poorly fitted or top-dose-only effect, or another doubt; inactive means no such curve, though single readings can be large; an effect the other way counts as inactive or inconclusive.

Columns and labels:
[1] = Quantitative High-Throughput drug screen in 47 multiple myeloma cell lines against the NCATS MIPE library collection: Karpas417_ECACC cell viability assay (AID 1918961); settings: Karpas417 myeloma viability, CellTiter-Glo ATP luminescence, 48 h; viability (% of DMSO): at 45.8 µM (top of the series)
In short: (§1)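 We plated 500 myeloma cells per well, pinned in MIPE 4.0 compounds, and incubated for 48 hours at 37C. ATP was then quantified with CellTiter-Glo, with DMSO and media-only wells defining 100% and 0%.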

[2] = Quantitative High-Throughput drug screen in 47 multiple myeloma cell lines against the NCATS MIPE library collection: KHM11_PLB cell viability assay (AID 1918962); settings: KHM11 myeloma cell viability, CellTiter-Glo ATP luminescence, 48 h; series mostly up to 45.8 µM; further: nearly all actives have a fitted effect of over 35% in size
In short: (§2)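 Primary qHTS used for cherry-picking: cells at 500/well, library compounds for 48 h (37C, 5% CO2), luminescent ATP assay.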

[3] = Quantitative High-Throughput drug screen in 47 multiple myeloma cell lines against the NCATS MIPE library collection: JIM1_ECACC cell viability assay (AID 1918964); settings: JIM1 myeloma viability, CellTiter-Glo ATP luminescence, 48 h; viability (% of DMSO): at 45.8 µM (top of the series)
In short: (§3)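 Inhibition of cell viability is measured here. Each line was plated at 500 cells per well, treated with MIPE 4.0 drugs, kept 48 hours at 37C, then assayed for ATP content by CellTiter-Glo luminescence.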

[4] = Quantitative High-Throughput drug screen in 47 multiple myeloma cell lines against the NCATS MIPE library collection: JJN3_DSMZ cell viability assay (AID 1918966; further: nearly all actives have a fitted effect of over 50% in size)
In short: as §3

[5] = Quantitative High-Throughput drug screen in 47 multiple myeloma cell lines against the NCATS MIPE library collection: KMS12BM_JCRB cell viability assay (AID 1918971); further: nearly all actives have a fitted effect of over 35% in size
In short: (§4)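 Relative luminescence from CellTiter-Glo served as the viability signal, referenced to DMSO-treated (100%) and cell-free medium (0%) controls. Treatment lasted 48 hours at 37C with 500 cells per well.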

[6] = Quantitative High-Throughput drug screen in 47 multiple myeloma cell lines against the NCATS MIPE library collection: KMS12PE_JCRB cell viability assay (AID 1918972); settings: KMS12PE myeloma viability, CellTiter-Glo ATP, 48 h; viability: at 45.8 µM (top of the series); further: nearly all actives have a fitted effect of over 30% in size
In short: as §1

[7] = Quantitative High-Throughput drug screen in 47 multiple myeloma cell lines against the NCATS MIPE library collection: KMS20_JCRB cell viability assay (AID 1918973); settings: CellTiter-Glo ATP, 48 h; viability (% of DMSO): at 45.8 µM (top of the series); further: nearly all actives have a fitted effect of over 45% in size
In short: as §3

[8] = Quantitative High-Throughput drug screen in 47 multiple myeloma cell lines against the NCATS MIPE library collection: MMM1_PLB cell viability assay (AID 1918976); further: nearly all actives have a fitted effect of over 35% in size
In short: (§5)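 Plated at 500 cells per well, myeloma lines received MIPE 4.0 compounds by pin tool. Following 48 h culture at 37 °C, CellTiter-Glo luminescence gave viability relative to DMSO and media-only controls.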

[9] = Quantitative High-Throughput drug screen in 47 multiple myeloma cell lines against the NCATS MIPE library collection: MOLP8_DSMZ cell viability assay (AID 1918977); further: nearly all actives have a fitted effect of over 45% in size
In short: as §5

[10] = Quantitative High-Throughput drug screen in 47 multiple myeloma cell lines against the NCATS MIPE library collection: NCIH929_DSMZ cell viability assay (AID 1918978); settings: NCI-H929 myeloma viability, CellTiter-Glo ATP, 48 h; series mostly up to 45.8 µM; further: nearly all actives have a fitted effect of over 35% in size
In short: as §5

[11] = Quantitative High-Throughput drug screen in 47 multiple myeloma cell lines against the NCATS MIPE library collection: MM1S_ATCC cell viability assay (AID 1918980); further: nearly all actives have a fitted effect of over 45% in size
In short: as §5

[12] = Quantitative High-Throughput drug screen in 47 multiple myeloma cell lines against the NCATS MIPE library collection: JIM3_ECACC cell viability assay (AID 1918963; further: nearly all actives have a fitted effect of over 35% in size); settings: JIM3 myeloma viability, CellTiter-Glo ATP, 48 h; series mostly up to 45.8 µM
In short: as §2

[13] = Quantitative High-Throughput drug screen in 47 multiple myeloma cell lines against the NCATS MIPE library collection: KMS27_JCRB cell viability assay (AID 1918970); settings: KMS27 myeloma cells, CellTiter-Glo ATP viability, 48 h; viability (% of DMSO): at 45.8 µM (top of the series); further: nearly all actives have a fitted effect of over 30% in size
In short: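 Each line is seeded at 500 cells per well and treated with library compounds for 48 hours under 37 °C, 5% CO2. CellTiter-Glo is then added for 5 min at room temperature before median relative luminescence is recorded.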

[14] = Quantitative High-Throughput drug screen in 47 multiple myeloma cell lines against the NCATS MIPE library collection: KMS21BM_JCRB cell viability assay (AID 1918974); settings: ATP luminescence, 48 h; viability: at 45.8 µM (top of the series)
In short: as §3

[15] = Quantitative High-Throughput drug screen in 47 multiple myeloma cell lines against the NCATS MIPE library collection: Karpas25_ECACC cell viability assay (AID 1918968; further: nearly all actives have a fitted effect of over 35% in size)
In short: as §3

[16] = Quantitative High-Throughput drug screen in 47 multiple myeloma cell lines against the NCATS MIPE library collection: KMS26_JCRB cell viability assay (AID 1918975); settings: KMS26 myeloma cells viability, CellTiter-Glo ATP, 48 h; viability (% of DMSO): at 45.8 µM (top of the series); further: nearly all actives have a fitted effect of over 45% in size
In short: as §4

[17] = Quantitative High-Throughput drug screen in 47 multiple myeloma cell lines against the NCATS MIPE library collection: OCIMY1_PLB cell viability assay (AID 1918979); further: nearly all actives have a fitted effect of over 35% in size
In short: as §5

[18] = Quantitative High-Throughput drug screen in 47 multiple myeloma cell lines against the NCATS MIPE library collection: MM1R_ATCC cell viability assay (AID 1918981); further: nearly all actives have a fitted effect of over 35% in size
In short: as §5

[19] = Quantitative High-Throughput drug screen in 47 multiple myeloma cell lines against the NCATS MIPE library collection: INA6_PLB cell viability assay (AID 1918965; further: nearly all actives have a fitted effect of over 55% in size); settings: INA6 myeloma viability, CellTiter-Glo ATP luminescence, 48 h; series mostly up to 45.8 µM
In short: as §1

[20] = Quantitative High-Throughput drug screen in 47 multiple myeloma cell lines against the NCATS MIPE library collection: H1112_PLB cell viability assay (AID 1918967; further: nearly all actives have a fitted effect of over 30% in size)
In short: as §3

Measured: Potency
Potency means the concentration at half of the fitted maximal effect.

C[C@H]1CCCC=CC2C[C@H](O)C[C@@H]2[C@H](O)C=CC(=O)O1 (some centres undefined)
inactive: [1] | [2] | [4] | [5] | [7] | [9] | [10] | [11]
inconclusive: [3] 0.0012 µM [cytotoxic, full curve] | [6] 0.0013 µM [cytotoxic, full curve] | [8] 0.0118 µM [rising, full curve, poor fit]

COc1ccc(N(C(=O)Oc2c(C)cccc2C)c2ccnc(Nc3ccc(N4CCN(C)CC4)cc3)n2)c(OC)c1
inconclusive: [1] 1.32 µM [cytotoxic, full curve, poor fit] | [12] 29.6 µM [cytotoxic, single point] | [6] 1.66 µM [cytotoxic, full curve] | [7] 3.72 µM [cytotoxic, full curve, poor fit] | [10] 14.8 µM [cytotoxic, partial curve]
active: [3] 2.64 µM | [13] 2.96 µM | [5] 1.48 µM | [14] 0.235 µM | [11] 4.69 µM

O=C1CC[C@@]2(O)[C@H]3Cc4ccc(O)c5c4[C@@]2(CCN3CC2CC2)[C@H]1O5
inconclusive: [2] 20.9 µM [cytotoxic, partial curve, poor fit] | [4] 0.0019 µM [cytotoxic, full curve, poor fit] | [5] 5.26 µM [cytotoxic, partial curve, poor fit] | [7] 2.96 µM [cytotoxic, partial curve, poor fit] | [14] 33.2 µM [rising, partial curve, poor fit] | [8] 13.2 µM [cytotoxic, partial curve, poor fit] | [9] 16.6 µM [cytotoxic, partial curve, poor fit] | [18] 18.7 µM [rising, partial curve, poor fit]
inactive: [1] | [3] | [15] | [16] | [17] | [11]

Cc1cccc(C)c1NC(=O)CN1CCCC1=O
inconclusive: [1] 1.05 µM [rising, full curve, poor fit] | [3] 0.0012 µM [cytotoxic, full curve, poor fit] | [4] 1.18 µM [cytotoxic, full curve, poor fit] | [7] 0.0026 µM [rising, full curve, poor fit] | [14] 0.0833 µM [cytotoxic, full curve, poor fit] | [8] 4.69 µM [cytotoxic, partial curve, poor fit] | [9] 0.469 µM [cytotoxic, full curve, poor fit]
inactive: [12] | [19] | [5] | [6] | [16] | [10] | [18]

O=C(N[C@@H](COc1ccc2[nH]c(=O)[nH]c2c1)c1ccccc1)c1cccn(Cc2ccc(F)c(F)c2)c1=O
active: [6] 18.7 µM | [7] 18.7 µM | [11] 16.6 µM
inconclusive: [1] 8.33 µM [cytotoxic, partial curve, poor fit] | [12] 18.7 µM [cytotoxic, partial curve] | [3] 10.5 µM [cytotoxic, partial curve] | [19] 16.6 µM [cytotoxic, partial curve, poor fit] | [4] 0.0264 µM [rising, full curve, poor fit] | [20] 18.7 µM [cytotoxic, single point] | [15] 23.5 µM [cytotoxic, partial curve] | [5] 37.2 µM [cytotoxic, single point] | [14] 4.69 µM [cytotoxic, full curve, poor fit] | [16] 0.0013 µM [cytotoxic, full curve, poor fit] | [8] 0.0093 µM [rising, full curve] | [10] 16.6 µM [cytotoxic, partial curve] | [17] 26.4 µM [cytotoxic, single point] | [18] 33.2 µM [cytotoxic, single point]
inactive: [9]

O=S(=O)(CC1CS1)c1ccc(Oc2ccccc2)cc1 (centres undefined)
inconclusive: [20] 18.7 µM [cytotoxic, partial curve] | [13] 8.33 µM [cytotoxic, partial curve, poor fit] | [14] 29.6 µM [rising, partial curve, poor fit] | [17] 29.6 µM [cytotoxic, single point]
active: [1] 9.35 µM | [2] 14.8 µM | [4] 11.8 µM | [5] 26.4 µM | [7] 14.8 µM | [16] 26.4 µM | [10] 16.6 µM
inactive: [3]
